Laboratory results reported in PubChem BioAssay AID192 (DTP/NCI, 2004).
The list shows only some results of the screen, not a fair sample: it gathers tests that were run many times, whatever their T/C, doses with no T/C, and many T/C values between a quarter and a half above the control. Other doses and runs of a compound stand elsewhere. T/C is the treated group as % of the vehicle group. Some entries give survivors of the animals treated and no T/C: the source holds a T/C of zero for them, seemingly a mark for toxic or unscored doses. Some doses without a T/C left all or most animals alive at the check, yet need not have been tolerated: survival well below the control is almost never listed, so the zero probably covers shortened survival too. Survivors were counted at the toxicity check, usually on the fifth day, unless a day is given; later deaths do not show. Schedules are NCI's codes, taken here to give the interval after Q, in days (D) or hours (H), and the number of doses after X. Some entries hold several experiments; the values are given in rising order. Where survival is the endpoint, this PubChem deposit counts one and a half times the control or more as active, and values a quarter to a half above the control carry no call in these data; other NCI protocols may use other cut-offs.

Tested on: BDF1 mice, B16 melanoma ip, median survival T/C
Test: NCI In Vivo Anticancer Drug Screen. Data for tumor model B16 Melanoma (intraperitoneal) in B6D2F1 (BDF1) mice
Conditions: T/C endpoint: median survival time, higher T/C = longer survival
Description: The antitumor activity of compounds was measured in mice bearing transplantable tumors. Survival or tumor size were measured and the results are expressed as the measurement made in the treated group (T) divided by the measurement made in the vehicle treated control group (C). The tumor model used in this assay is B16 Melanoma (intraperitoneal) in B6D2F1 (BDF1) mice

[1] = dose: 400.0 mg/kg/injection, schedule: Q01DX009 (ip), vehicle: Klucel (hydroxypropylcellulose) (HPC)
[2] = dose: 6.25 mg/kg/injection, schedule: Q01DX009 (ip), vehicle: saline with Tween-80
[3] = dose: 25.0 mg/kg/injection, schedule: Q01DX009 (ip), vehicle: saline with Tween-80
[4] = dose: 100.0 mg/kg/injection, schedule: Q01DX009 (ip), vehicle: Klucel (hydroxypropylcellulose) (HPC)
[5] = dose: 12.5 mg/kg/injection, schedule: Q01DX009 (ip), vehicle: saline with Tween-80
[6] = dose: 100.0 mg/kg/injection, schedule: Q01DX009 (ip), vehicle: saline with Tween-80
[7] = dose: 400.0 mg/kg/injection, schedule: Q01DX009 (ip), vehicle: saline with Tween-80

With `Clc1ccc(/C=N\N=C\c2ccc(Cl)c(Cl)c2)cc1Cl` the survivor count [1] was 7 of 10.

For `O=C1NC(Cc2ccc(N(CCCl)CCCl)cc2)C(=O)O1` (stereo unspecified), the T/C (dose: 0.78 mg/kg/injection, schedule: Q01DX009 (ip), vehicle: saline with Tween-80) was 126 % of control, the T/C (dose: 1.5 mg/kg/injection, schedule: Q01DX009 (ip), vehicle: saline with Tween-80) was 138 % of control and the T/C (dose: 1.56 mg/kg/injection, schedule: Q01DX009 (ip), vehicle: saline with Tween-80) was 147 % of control. For the same compound, the survivor count [2] was 6 of 6, the survivor count (dose: 12.0 mg/kg/injection, schedule: Q01DX009 (ip), vehicle: saline with Tween-80) was 10 of 10 and the survivor count [3] was 6 of 6.

With `CCOc1ccc(/C=N\N=C\c2ccc(OCC)cc2)cc1` the survivor count [4] was 10 of 10 and the survivor count [1] was 9 of 10 and 10 of 10.

In the case of `ClCc1c2ccccc2c(CCl)c2ccccc12`, the T/C (dose: 3.0 mg/kg/injection, schedule: Q01DX009 (ip), vehicle: Klucel (hydroxypropylcellulose) (HPC)) is reported as 132 % of control.

For `OCCOCCN1CCN(C(c2ccccc2)c2ccc(Cl)cc2)CC1` (stereo unspecified), the survivor count (dose: 200.0 mg/kg/injection, schedule: Q01DX009 (ip), vehicle: saline) was 0 of 10 and the survivor count (dose: 400.0 mg/kg/injection, schedule: Q01DX009 (ip), vehicle: saline) was 0 of 10.

`CC(=O)O[C@@H]1[C@@H](O)C2=C3[C@]4(C)[C@@H]1C(C)(C)C(=O)C[C@@H]4[C@]3(O)[C@H](OC(C)=O)[C@@]1(C[C@@H]1C)C2=O` was tested, and the survivor count [2] was 6 of 10, the survivor count [5] was 8 of 10 and the survivor count [3] was 6 of 10. The survivor count (dose: 50.0 mg/kg/injection, schedule: Q01DX009 (ip), vehicle: saline with Tween-80) was 3 of 10 and the survivor count [6] was 4 of 10 and 8 of 10.

`Nc1ccnc(=O)[nH]1` was tested, and the T/C (dose: 256.0 mg/kg/injection, schedule: Q01DX009 (ip), vehicle: saline with Tween-80) was 126 % of control.

With `CCC[CH2][Sn]([CH2]CCC)([CH2]CCC)[O]C(=O)CC[S][Sn]([CH2]CCC)([CH2]CCC)[CH2]CCC` the survivor count (dose: 4.0 mg/kg/injection, schedule: Q01DX009 (ip), vehicle: saline with Tween-80) was 5 of 10.

`[Cl][Pd]([Cl])([Cl])[Cl]` was tested, and the survivor count (dose: 25.0 mg/kg/injection, schedule: Q01DX009 (ip), vehicle: saline) was 10 of 10, the survivor count (dose: 50.0 mg/kg/injection, schedule: Q01DX009 (ip), vehicle: saline) was 10 of 10 and the survivor count (dose: 100.0 mg/kg/injection, schedule: Q01DX009 (ip), vehicle: saline) was 3 of 10.

For `O=c1oc2c3ccccc3c3ccccc3c2o1`, the survivor count (dose: 50.0 mg/kg/injection, schedule: Q01DX009 (ip), vehicle: Klucel (hydroxypropylcellulose) (HPC)) was 10 of 10, the survivor count [4] was 9 of 10 and the survivor count (dose: 200.0 mg/kg/injection, schedule: Q01DX009 (ip), vehicle: Klucel (hydroxypropylcellulose) (HPC)) was 0 of 10. The survivor count [1] was 0 of 10.

For `COc1ccc(NC(=O)Nc2ccc(Br)cc2)cc1`, the survivor count (dose: 200.0 mg/kg/injection, schedule: Q01DX009 (ip), vehicle: saline with Tween-80) was 10 of 10 and the survivor count [7] was 10 of 10.

For `CCCCC(CC)COP(=O)(CC(CC)CCCC)OCC(CC)CCCC` (stereo unspecified), the T/C (dose: 12.5 mg/kg/injection, schedule: Q04DX003 (ip), vehicle: saline) was 126 % of control.

For `CCCCCCCCSC1=C(Cl)C(=O)C(OC)=C(OC)C1=O`, the survivor count [2] was 10 of 10, the survivor count [5] was 10 of 10 and the survivor count [3] was 9 of 10. The survivor count (dose: 37.5 mg/kg/injection, schedule: Q01DX009 (ip), vehicle: saline with Tween-80) was 7 of 10.

With `C=C1C(O)C2(O)OCC34C(CC5C(C)=CC(=O)C(O)C5(C)C23)OC(=O)C(OC(=O)C(C)(O)CC)C14` (stereo unspecified) the T/C (dose: 0.12 mg/kg/injection, schedule: Q01DX009 (ip), vehicle: saline + alcohol) was 127 % of control, the T/C (dose: 0.25 mg/kg/injection, schedule: Q01DX009 (ip), vehicle: saline + alcohol) was 149 % of control and the T/C (dose: 0.5 mg/kg/injection, schedule: Q01DX009 (ip), vehicle: saline + alcohol) was 140 % of control. The survivor count (dose: 2.0 mg/kg/injection, schedule: Q01DX009 (ip), vehicle: saline + alcohol) was 2 of 10.

For `CC(=O)Oc1ccccc1O`, the survivor count (dose: 200.0 mg/kg/injection, schedule: Q01DX009 (ip), vehicle: saline + Tween-80 + alcohol) was 3 of 10.

`Cc1cc2nc3[nH]c4ccccc4c3nc2cc1C` was tested, and the survivor count [6] was 8 of 10 and the survivor count [7] was 10 of 10.

For `OC(CCN1CCCC1)(c1ccccc1)C1CCCCC1` (stereo unspecified), the survivor count (dose: 12.5 mg/kg/injection, schedule: Q01DX009 (ip), vehicle: Klucel (hydroxypropylcellulose) (HPC)) was 10 of 10.
